Data as given in PubChem BioAssay AID504793 (Drosophila RNAi Screening Center, 2011)
The screen tested about 23,000 reagents; shown is an unselected part of those that have a named target and a result. Of all reagents, 62 (0.27%) were called active. 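Calls come from follow-up tests whose scores are not deposited, so confirmed genes may have low counts here; counts are not normalised per plate.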 Raw values vary from plate to plate and are shown uncorrected. A number with no mark means an inactive call.

- Assay: 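Knock-downs allowing continued mitosis even though DNA is damaged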 (primary screen)
- Cell system: Drosophila S2R+ cells
- Knock-down reagent: long dsRNA against Drosophila genes, about 0.25 µg dsRNA per well
- Timing: 4 days of dsRNA, then 4 hours of drug before read-out
- Treatment: doxorubicin 0.5 µM for 4 hours to cause double-strand breaks, in cells also given a low, harmless dose of dsRNA against nbs to sensitise the assay
- Detection: 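Per-well count of mitotic cells stained for phospho-histone H3 after doxorubicin exposure, used as mitotic index; counts are raw and not normalised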
- Scale: mitotic cells: higher = more cells in mitosis, weaker G2 arrest
- Active means: 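a call needs confirmation in secondary tests, with other dsRNAs and a check of mitotic timing without damage, not just a high primary count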
- Meaning of the calls: active = confirmed in follow-up tests; inactive = not confirmed

Tmem131 [DRSC07154] | mitotic cells, replicate 1 = 8
CG9536 [DRSC03254] | mitotic cells, replicate 1 = 3
CG9536 [DRSC24736] | mitotic cells, replicate 1 = 6
Spn31A [DRSC02780] | mitotic cells, replicate 1 = 2
Spn31A [DRSC29198] | mitotic cells, replicate 1 = 8
CG2124 [DRSC18208] | mitotic cells, replicate 1 = 6
ClC-c [DRSC10499] | mitotic cells, replicate 1 = 4
CkIIalpha-i3 [DRSC08651] | mitotic cells, replicate 1 = 4
Gsc [DRSC00755] | mitotic cells, replicate 1 = 2
Gsc [DRSC25752] | mitotic cells, replicate 1 = 1
CG7546 [DRSC08885] | mitotic cells, replicate 1 = 9
CG7546 [DRSC10871] | mitotic cells, replicate 1 = 12
CG7546 [DRSC22148] | mitotic cells, replicate 1 = 8

Look-ups from the list.
Entry of ClC-c [DRSC10499] in “mitotic cells, replicate 1”: 4
Under “mitotic cells, replicate 1”, CG9536 [DRSC03254] reads 3
Under “mitotic cells, replicate 1”, Spn31A [DRSC29198] shows 8

The list goes on:
CG32773 (retired record) [DRSC17330] | mitotic cells, replicate 1 = 4
up [DRSC20382] | mitotic cells, replicate 1 = 9
up [DRSC28798] | mitotic cells, replicate 1 = 2
Grip71 [DRSC02042] | mitotic cells, replicate 1 = 47
Gp210 [DRSC04861] | mitotic cells, replicate 1 = 5
Gp210 [DRSC04900] | mitotic cells, replicate 1 = 6
CG12836 [DRSC06182] | mitotic cells, replicate 1 = 4
e(y)2 [DRSC19640] | mitotic cells, replicate 1 = 11
Hr39 [DRSC03346] | mitotic cells, replicate 1 = 9
Hr39 [DRSC26006] | mitotic cells, replicate 1 = 7
Mdr50 [DRSC07467] | mitotic cells, replicate 1 = 7
Mdr50 [DRSC23705] | mitotic cells, replicate 1 = 3
MCPH1 [DRSC06309] | mitotic cells, replicate 1 = 5
MCPH1 [DRSC07308] | mitotic cells, replicate 1 = 5
MCPH1 [DRSC22536] | mitotic cells, replicate 1 = 10
MCPH1 [DRSC28302] | mitotic cells, replicate 1 = 6
Sec61beta [DRSC07548] | mitotic cells, replicate 1 = 9
Sec61beta [DRSC21512] | mitotic cells, replicate 1 = 11
Sec61beta [DRSC28915] | mitotic cells, replicate 1 = 4
daw [DRSC00479] | mitotic cells, replicate 1 = 8
daw [DRSC24450] | mitotic cells, replicate 1 = 2
